{
  "source": "paper PMC11480952",
  "molecular_target": "serine/threonine protein kinase ARAF (v-raf murine sarcoma 3611 viral oncogene homolog) (human (endogenous in liver cancer cells)) (UniProt P10398)",
  "assay": "co-IP; co-immunoprecipitation with anti-ARAF, Western blot; liver cancer cells of the rLV group and the rLV-CARM1 (CARM1 overexpressing) group compared",
  "note": "These are yes or no findings as the source states them, for the method shown. Binding seen in cells or lysates may run through a third protein. Binding can be weak; no strength is given.",
  "data": [
    {"substance": "GADD45 (human (endogenous in liver cancer cells))", "values": [
      {"measurement": "binding", "result": "binds"}
    ]}
  ]
}
